{"source": "PubChem BioAssay AID540276", "about": "(National Center for Advancing Translational Sciences (NCATS), 2011)", "note": "The whole screen tested about 300,000 compounds, of which about 5,400 (1.8%) were called active. Entries that show only a call come without a potency. Inconclusive results, whose numbers are uncertain, are shown with a selection of clear calls. The call rests on the fitted dose curve; tested in HEK293 cells. Where the call is inconclusive, the potency comes from a doubtful curve fit. Potency means the concentration at half of the fitted maximal effect.", "data": [{"experiment": "qHTS for inhibitors of binding or entry into cells for Marburg Virus", "conditions": "Marburg virus pseudotyped entry inhibition, cell reporter; series mostly up to 37.8 µM", "values": [{"smiles": "COc1cccc(/C=N/NC(=O)c2cccc3ccccc23)c1OC", "Potency": "inactive"}, {"smiles": "Cn1nc(-c2ccccc2F)c2cc(C(=O)NCc3ccccc3Cl)sc21", "Potency": "inactive"}, {"smiles": "O=[N+]([O-])c1ccc(C2CCCC/C2=N/OCc2ccc(F)cc2)c([N+](=O)[O-])c1", "note": "(stereo unspecified)", "Potency": "inconclusive: 0.92 µM [inhibitor, full curve, poor fit]"}, {"smiles": "CCN(CC(=O)Nc1ccc(NC(C)=O)cc1)C(=O)C1(c2ccccc2)CC1", "Potency": "inactive"}, {"smiles": "Cc1ccc(CNC(=O)Cc2ccc(-n3c(=O)[nH]c4ccsc4c3=O)cc2)cc1", "Potency": "inactive"}, {"smiles": "c1cc(-c2noc(CCC3CCCC3)n2)ccn1", "Potency": "inactive"}, {"smiles": "CC1CC(C)CN(C(=O)COC(=O)CCC(=O)c2cccs2)C1", "note": "(stereo unspecified)", "Potency": "inconclusive: 35.5 µM [activator, single point]"}, {"smiles": "Cc1occc1C(=O)NCc1cccc(CNC(=O)c2ccoc2C)c1", "Potency": "inactive"}, {"smiles": "CCOc1ccc(CN2CCN(Cc3[nH]c4ccc(OC)cc4c3C)CC2CCO)cc1", "note": "(stereo unspecified)", "Potency": "inconclusive: 20 µM [inhibitor, partial curve, poor fit]"}, {"smiles": "COc1ccc(C(=O)Nc2ccc(C(=O)c3ccccc3)cc2)cc1", "Potency": "inactive"}, {"smiles": "Cc1cccc(-n2c(C)cc(C(=O)C(=O)Nc3ccccc3F)c2C)c1C", "Potency": "inactive"}, {"smiles": "Cc1cc([N+](=O)[O-])ccc1NC(=O)COc1nsnc1N1CCOCC1", "Potency": "inactive"}, {"smiles": "OC(CNC1CCCCC1)C(F)(F)F", "note": "(stereo unspecified)", "Potency": "inactive"}, {"smiles": "CCCN1CCN(CCCNC(=O)c2cc3c(=O)n(CC)c4ccccc4c3s2)CC1", "Potency": "inconclusive: 22.4 µM [inhibitor, single point]"}, {"smiles": "CN(C)S(=O)(=O)N(CC(=O)NCCSCc1c(F)cccc1Cl)c1ccccc1", "Potency": "inconclusive: 12.6 µM [activator, single point]"}, {"smiles": "CN(C)c1ncnc2c1ncn2C1OC(CO)C(O)C1O", "note": "(stereo unspecified)", "Potency": "inconclusive: 8.91 µM [inhibitor, partial curve, poor fit]"}, {"smiles": "CCOc1ccc(-c2cc(C)[n+](CCN3CCOCC3)c(-c3ccc(OCC)cc3)c2)cc1", "Potency": "inconclusive: 11.2 µM [inhibitor, single point]"}, {"smiles": "COc1ccc(CNn2c(C)nc3ccccc3c2=O)cc1", "Potency": "inconclusive: 2.31 µM [inhibitor, full curve, poor fit]"}, {"smiles": "CCCCN(CCCNC(=O)c1cc(Nc2cccc(SC)c2)nc2ccccc12)Cc1ccccc1", "Potency": "inactive"}, {"smiles": "O=c1sc(Nc2ccccc2)nc2ccsc12", "Potency": "inconclusive: 7.3 µM [activator, partial curve, poor fit]"}, {"smiles": "O=C1NC(=S)SC1=Cc1cc(Br)ccc1O", "Potency": "inconclusive: 2.82 µM [inhibitor, partial curve, poor fit]"}]}]}
